Data on 23 compounds can be found in the supplement of paper PMC5355238.

Structures can show the parent of a compound that is named as a salt. The list shows a part of the results. Most entries show no effect beyond the scatter of the controls.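 Using flow cytometry, the assay measures the median γH2AX antibody signal in S-phase Reh cells (a human leukemia line). Each score is the number of standard deviations from the median difference of paired plate sets. Candidate hits scored above 2.5; compounds scoring below -2 lowered MK1775-induced damage.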

This assay concerns Reh. Put plainly: Z' of S-phase gammaH2AX difference (drug + MK1775 minus drug alone) (Z-score); higher = stronger synergistic S-phase DNA damage with MK1775. The following applies: MK1775 concentration 400 nM; first compound 10 µM; 4 h.
Consider `O=c1[nH]c2cc(Cl)ccc2c(O)c1-c1cccc(Oc2ccccc2)c1` + C=CCn1c(=O)c2cnc(Nc3ccc(N4CCN(C)CC4)cc3)nc2n1-c1cccc(C(C)(C)O)n1 [MK1775], for which the “Z' of S-phase gammaH2AX difference (Z-score)” value is inactive: -0.308.
`C=CCN1CCc2c(cc(O)c(O)c2Cl)C(c2ccccc2)C1` (stereo not drawn) [(?)-Chloro-APB hydrobromide] + C=CCn1c(=O)c2cnc(Nc3ccc(N4CCN(C)CC4)cc3)nc2n1-c1cccc(C(C)(C)O)n1 [MK1775]: the “Z' of S-phase gammaH2AX difference (Z-score)” value was inactive: 0.19.
The value for `O=C(CCCN1CCC(O)(c2ccc(Cl)cc2)CC1)c1ccc(F)cc1` [Haloperidol] + C=CCn1c(=O)c2cnc(Nc3ccc(N4CCN(C)CC4)cc3)nc2n1-c1cccc(C(C)(C)O)n1 [MK1775] was inactive: 0.0704; that for `CN1CCC(CNc2ccc3ncc(-c4cccc(OC(F)(F)F)c4)n3n2)CC1` [SGI-1776 free base] + C=CCn1c(=O)c2cnc(Nc3ccc(N4CCN(C)CC4)cc3)nc2n1-c1cccc(C(C)(C)O)n1 [MK1775] was inactive: -0.935.
The value for `N=C(N)SCCc1ccc(CCSC(=N)N)cc1` [1,4-PBIT dihydrobromide] + C=CCn1c(=O)c2cnc(Nc3ccc(N4CCN(C)CC4)cc3)nc2n1-c1cccc(C(C)(C)O)n1 [MK1775] was inactive: -0.907.
The value for `CC(N)(Cc1ccc(O)cc1)C(=O)O` (racemic) [DL-alpha-Methyl-p-tyrosine] + C=CCn1c(=O)c2cnc(Nc3ccc(N4CCN(C)CC4)cc3)nc2n1-c1cccc(C(C)(C)O)n1 [MK1775] was inactive: -1.05; that for `COc1c(C)c2c(c(O)c1C/C=C(\C)CCC(=O)OCCN1CCOCC1)C(=O)OC2` [Mycophenolate mofetil (CellCept)] + C=CCn1c(=O)c2cnc(Nc3ccc(N4CCN(C)CC4)cc3)nc2n1-c1cccc(C(C)(C)O)n1 [MK1775] was inactive: 1.66; that for `CN1C(C(=O)Nc2ccccn2)=C(O)c2ccccc2S1(=O)=O` [Piroxicam] + C=CCn1c(=O)c2cnc(Nc3ccc(N4CCN(C)CC4)cc3)nc2n1-c1cccc(C(C)(C)O)n1 [MK1775] was inactive: -0.471.
Consider `NCCS` [Cysteamine hydrochloride] + C=CCn1c(=O)c2cnc(Nc3ccc(N4CCN(C)CC4)cc3)nc2n1-c1cccc(C(C)(C)O)n1 [MK1775], for which the “Z' of S-phase gammaH2AX difference (Z-score)” value was inactive: -0.65.
The value for `COCCOC(=O)C1=C(C)NC(C)=C(C(=O)OC(C)C)C1c1cccc([N+](=O)[O-])c1` (stereo not drawn) [Nimodipine] + C=CCn1c(=O)c2cnc(Nc3ccc(N4CCN(C)CC4)cc3)nc2n1-c1cccc(C(C)(C)O)n1 [MK1775] was inactive: 0.422; that for `COC(=O)[C@@H](N)Cc1ccc(O)c(O)c1` [L-3,4-Dihydroxyphenylalanine methyl ester hydrochloride] + C=CCn1c(=O)c2cnc(Nc3ccc(N4CCN(C)CC4)cc3)nc2n1-c1cccc(C(C)(C)O)n1 [MK1775] was inactive: 0.668; that for `COc1ccc2c(c1)c(CC(=O)O)c(C)n2Cc1ccc(Cl)cc1` [1-(4-Chlorobenzyl)-5-methoxy-2-methylindole-3-acetic acid] + C=CCn1c(=O)c2cnc(Nc3ccc(N4CCN(C)CC4)cc3)nc2n1-c1cccc(C(C)(C)O)n1 [MK1775] was inactive: 0.0334.
As to `CNCc1ccc(-c2[nH]c3cc(F)cc4c3c2CCNC4=O)cc1` + C=CCn1c(=O)c2cnc(Nc3ccc(N4CCN(C)CC4)cc3)nc2n1-c1cccc(C(C)(C)O)n1 [MK1775], the “Z' of S-phase gammaH2AX difference (Z-score)” value was inactive: -0.502.
The value for `CCNC(=O)c1noc(-c2cc(C(C)C)c(O)cc2O)c1-c1ccc(CN2CCOCC2)cc1` + C=CCn1c(=O)c2cnc(Nc3ccc(N4CCN(C)CC4)cc3)nc2n1-c1cccc(C(C)(C)O)n1 [MK1775] was inactive: -0.0717; that for `Cc1cnc(-c2cnc(NCCNc3ccc(C#N)cn3)nc2-c2ccc(Cl)cc2Cl)[nH]1` + C=CCn1c(=O)c2cnc(Nc3ccc(N4CCN(C)CC4)cc3)nc2n1-c1cccc(C(C)(C)O)n1 [MK1775] was inactive: -0.333.
The value for `COc1cc(/C=C(\C#N)C(=O)c2ccc(O)c(O)c2)cc(I)c1O` [I-OMe-Tyrphostin AG 538] + C=CCn1c(=O)c2cnc(Nc3ccc(N4CCN(C)CC4)cc3)nc2n1-c1cccc(C(C)(C)O)n1 [MK1775] was inactive: 0.408; that for `CC(C)Oc1cc(Nc2nc(N[C@@H](C)c3ccc(F)cn3)ncc2Cl)n[nH]1` + C=CCn1c(=O)c2cnc(Nc3ccc(N4CCN(C)CC4)cc3)nc2n1-c1cccc(C(C)(C)O)n1 [MK1775] was inactive: -1.06.
`N[C@@H](Cc1c[nH]cn1)C(=O)O` [L-Histidine hydrochloride] + C=CCn1c(=O)c2cnc(Nc3ccc(N4CCN(C)CC4)cc3)nc2n1-c1cccc(C(C)(C)O)n1 [MK1775]: the “Z' of S-phase gammaH2AX difference (Z-score)” value was inactive: 0.921.
The value for `CC(C[N+](C)(C)C)OC(N)=O` (stereo not drawn) [Bethanechol chloride] + C=CCn1c(=O)c2cnc(Nc3ccc(N4CCN(C)CC4)cc3)nc2n1-c1cccc(C(C)(C)O)n1 [MK1775] was inactive: 1.1; that for `CC(=N)NCc1cccc(CN)c1` [1400W dihydrochloride] + C=CCn1c(=O)c2cnc(Nc3ccc(N4CCN(C)CC4)cc3)nc2n1-c1cccc(C(C)(C)O)n1 [MK1775] was inactive: 0.028; that for `Cc1cn([C@H]2C[C@H](N=[N+]=[N-])[C@@H](CO)O2)c(=O)[nH]c1=O` [3'-Azido-3'-deoxythymidine] + C=CCn1c(=O)c2cnc(Nc3ccc(N4CCN(C)CC4)cc3)nc2n1-c1cccc(C(C)(C)O)n1 [MK1775] was inactive: 0.548.
For `COc1ccc([C@@H]2Sc3ccccc3N(CCN(C)C)C(=O)[C@@H]2OC(C)=O)cc1` [Diltiazem hydrochloride] + C=CCn1c(=O)c2cnc(Nc3ccc(N4CCN(C)CC4)cc3)nc2n1-c1cccc(C(C)(C)O)n1 [MK1775], the “Z' of S-phase gammaH2AX difference (Z-score)” value is inactive: 0.109.
The value for `O=C1Nc2ccc(I)cc2/C1=C/c1cc(Br)c(O)c(Br)c1` + C=CCn1c(=O)c2cnc(Nc3ccc(N4CCN(C)CC4)cc3)nc2n1-c1cccc(C(C)(C)O)n1 [MK1775] was inactive: 1.79.
